Measured values reported in patent US9102678B2, “Compounds and methods for inhibiting mitotic progression” (Millennium Pharmaceuticals, Inc., priority 2004, dated 2015).
pIC50: −log10 of the molar value. Some of these results come from one statement about several compounds together.

Chains of the proteins cited; added tags and fusions are not shown. Lines headed by an entry give the natural chain unless they say otherwise; changes in a name come on top.
UniProt P97477: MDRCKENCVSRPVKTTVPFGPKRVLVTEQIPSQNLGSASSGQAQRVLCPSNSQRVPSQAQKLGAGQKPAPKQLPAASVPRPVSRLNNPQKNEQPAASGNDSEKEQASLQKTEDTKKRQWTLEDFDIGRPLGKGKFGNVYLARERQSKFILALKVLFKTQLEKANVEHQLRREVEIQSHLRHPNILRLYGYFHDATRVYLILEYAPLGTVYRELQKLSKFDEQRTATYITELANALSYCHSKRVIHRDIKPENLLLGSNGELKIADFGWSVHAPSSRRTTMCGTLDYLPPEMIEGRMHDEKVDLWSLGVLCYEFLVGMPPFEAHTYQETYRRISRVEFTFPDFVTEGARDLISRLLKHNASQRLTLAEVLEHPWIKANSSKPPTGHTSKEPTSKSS

Target: T1, recombinant murine Aurora A enzyme (Mus musculus, UniProt P97477)
T1 construct: hexahistidine (His6) (N); made in house; host or cells: insect cells, baculovirus (Bac-to-Bac, Invitrogen)
Experiment: Aurora A DELFIA Kinase Assay
Format: biochemical
Details: 250 μM ATP, threshold less than or equal to 1.0 μM

Structure (SMILES)	pIC50
CNCCN(C)c1cccc(F)c1C1=NCc2cnc(Nc3ccc(C(=O)O)cc3)nc2-c2ccc(Cl)cc21 [Compound I-320, 4-{[9-chloro-7-(2-fluoro-6-{methyl[2-(methylamino)ethyl]amino}phenyl)-5H-pyrimido[5,4-d][2]benzazepin-2-yl]amino}benzoic acid]	≥ 6.00
O=C(O)c1ccc(Nc2ncc3c(n2)-c2ccc(Cl)cc2C(c2ncccc2F)=NC3)cc1 [Compound I-301, 4-{[9-chloro-7-(3-fluoropyridin-2-yl)-5H-pyrimido[5,4-d][2]benzazepin-2-yl]amino}benzoic acid]	≥ 6.00
O=C(c1ccc(Nc2ncc3c(n2)-c2ccc(Cl)cc2C(c2ccccc2F)=NC3)cc1Cl)N1CCN(CCN2CCCC2)CC1 [Compound I-213, 9-chloro-N-(3-chloro-4-{[4-(2-pyrrolidin-1-ylethyl)piperazin-1-yl]carbonyl}phenyl)-7-(2-fluorophenyl)-5H-pyrimido[5,4-d][2]benzazepin-2-amine]	≥ 6.00
CNCCCN(C)c1cccc(F)c1C1=NCc2cnc(Nc3ccc(C(=O)O)cc3)nc2-c2ccc(Cl)cc21 [Compound I-335, 4-{[9-chloro-7-(2-fluoro-6-{methyl[3-(methylamino)propyl]amino}phenyl)-5H-pyrimido[5,4-d][2]benzazepin-2-yl]amino}benzoic acid]	≥ 6.00
NC(=O)Cc1cccc(Nc2ncc3c(n2)-c2ccc(Cl)cc2C(c2ccccc2Cl)=NC3)c1 [Compound I-66, 2-{3-[9-Chloro-7-(2-chloro-phenyl)-5H-benzo[c]pyrimido[4,5-e]azepin-2-ylamino]-phenyl}-acetamide]	≥ 6.00
CNCCCN(C)C(=O)c1ccc(Nc2ncc3c(n2)-c2ccc(Cl)cc2C(c2c(F)cccc2F)=NC3)cc1 [Compound I-198, 4-[9-Chloro-7-(2,6-difluoro-phenyl)-5H-benzo[c]pyrimido[4,5-e]azepin-2-ylamino]-N-methyl-N-(3-methylamino-propyl)-benzamide]	≥ 6.00
NC1CCN(C(=O)c2ccc(Nc3ncc4c(n3)-c3ccc(Cl)cc3C(c3c(F)cccc3F)=NC4)cc2)C1 (centres unmarked) [Compound I-196, (3-Amino-pyrrolidin-1-yl)-{4-[9-chloro-7-(2,6-difluoro-phenyl)-5H-benzo[c]pyrimido[4,5-e]azepin-2-ylamino]-phenyl}-methanone]	≥ 6.00
CNC1CCN(C(=O)c2ccc(Nc3ncc4c(n3)-c3ccc(Cl)cc3C(c3ccccc3C(F)(F)F)=NC4)cc2)C1 (centres unmarked) [Compound I-290, 9-chloro-N-(4-{[3-(methylamino)pyrrolidin-1-yl]carbonyl}phenyl)-7-[2-(trifluoromethyl)phenyl]-5H-pyrimido[5,4-d][2]benzazepin-2-amine]	≥ 6.00
O=C(O)c1coc(Nc2ncc3c(n2)-c2ccc(Cl)cc2C(c2c(F)cccc2F)=NC3)n1 [Compound I-368, 2-{[9-chloro-7-(2,6-difluorophenyl)-5H-pyrimido[5,4-d][2]benzazepin-2-yl]amino}-1,3-oxazole-4-carboxylic acid]	≥ 6.00
CNC1CCN(C(=O)c2ccc(Nc3ncc4c(n3)-c3ccc(Cl)cc3C(c3c(F)cccc3OC)=NC4)cc2)C1 (centres unmarked) [Compound I-199, {4-[9-Chloro-7-(2-fluoro-6-methoxy-phenyl)-5H-benzo[c]pyrimido[4,5-e]azepin-2-ylamino]-phenyl}-(3-methylamino-pyrrolidin-1-yl)-methanone]	≥ 6.00
CN(C)C1CCCN(C(=O)c2ccc(Nc3ncc4c(n3)-c3ccc(Cl)cc3C(c3c(F)cccc3F)=NC4)cc2)C1 (centres unmarked) [Compound I-293, 9-chloro-7-(2,6-difluorophenyl)-N-(4-{[3-(dimethylamino)piperidin-1-yl]carbonyl}phenyl)-5H-pyrimido[5,4-d][2]benzazepin-2-amine]	≥ 6.00
CN(C)C1CCN(C(=O)c2ccc(Nc3ncc4c(n3)-c3ccc(Cl)cc3C(c3c(F)cccc3F)=NC4)cc2Cl)C1 (centres unmarked) [Compound I-215, 9-chloro-N-(3-chloro-4-{[3-(dimethylamino)pyrrolidin-1-yl]carbonyl}phenyl)-7-(2,6-difluorophenyl)-5H-pyrimido[5,4-d][2]benzazepin-2-amine]	≥ 6.00
NC1CCN(C(=O)c2ccc(Nc3ncc4c(n3)-c3ccc(Cl)cc3C(c3ncccc3F)=NC4)cc2)C1 (centres unmarked) [Compound I-305]	≥ 6.00
CN(C)C1CCN(C(=O)c2cccc(Nc3ncc4c(n3)-c3ccc(Cl)cc3C(c3c(F)cccc3F)=NC4)c2)CC1 [Compound I-205, 9-chloro-7-(2,6-difluorophenyl)-N-(3-{[4-(dimethylamino)piperidin-1-yl]carbonyl}phenyl)-5H-pyrimido[5,4-d][2]benzazepin-2-amine]	≥ 6.00
CN1CCN(C(=O)c2ccc(Nc3ncc4c(n3)-c3ccc(Cl)cc3C(c3ccccc3F)=NC4)cc2)CC1 [Compound I-9, {4-[9-Chloro-7-(2-fluoro-phenyl)-5H-benzo[c]pyrimido[4,5-e]azepin-2-ylamino]-phenyl}-(4-methyl-piperazin-1-yl)-methanone]	≥ 6.00
N=C(N)NC(=O)c1ccc(Nc2ncc3c(n2)-c2ccc(Cl)cc2C(c2c(F)cccc2F)=NC3)cc1 [Compound I-202, N-[amino(imino)methyl]-4-{[9-chloro-7-(2,6-difluorophenyl)-5H-pyrimido[5,4-d][2]benzazepin-2-yl]amino}benzamide]	≥ 6.00
Cc1ccc2c(c1)C(c1ccccc1F)=NCc1cnc(Nc3ccc(C(=O)NCCN4CCOCC4)cc3)nc1-2 [Compound I-148, 4-[7-(2-Fluoro-phenyl)-9-methyl-5H-benzo[c]pyrimido[4,5-e]azepin-2-ylamino]-N-(2-morpholin-4-yl-ethyl)-benzamide]	≥ 6.00
NC1CCN(C(=O)c2ccc(Nc3ncc4c(n3)-c3ccc(Cl)cc3C(c3c(F)cccc3F)=NC4)cc2)CC1 [Compound I-239, N-{4-[(4-aminopiperidin-1-yl)carbonyl]phenyl}-9-chloro-7-(2,6-difluorophenyl)-5H-pyrimido[5,4-d][2]benzazepin-2-amine]	≥ 6.00
N=C(NC(=O)c1ccc(Nc2ncc3c(n2)-c2ccc(Cl)cc2C(c2c(F)cccc2F)=NC3)cc1)N1CCNCC1 [Compound I-224, 4-{[9-chloro-7-(2,6-difluorophenyl)-5H-pyrimido[5,4-d][2]benzazepin-2-yl]amino}-N-[imino(piperazin-1-yl)methyl]benzamide]	≥ 6.00
CC1CN(C(=O)c2coc(Nc3ncc4c(n3)-c3ccc(Cl)cc3C(c3c(F)cccc3F)=NC4)n2)CC(C)N1 (centres unmarked) [Compound I-374, 9-chloro-7-(2,6-difluorophenyl)-N-[4-[(3,5-dimethylpiperazin-1-yl)carbonyl]-1,3-oxazol-2-yl]-5H-pyrimido[5,4-d][2]benzazepin-2-amine]	≥ 6.00
CNC1CCN(C(=O)c2ccc(Nc3ncc4c(n3)-c3ccc(Cl)cc3C(c3c(F)cccc3OC)=NC4)cc2)CC1 [Compound I-242, 9-chloro-7-(2-fluoro-6-methoxyphenyl)-N-(4-{[4-(methylamino)piperidin-1-yl]carbonyl}phenyl)-5H-pyrimido[5,4-d][2]benzazepin-2-amine]	≥ 6.00
O=C(O)c1ccc(Nc2ncc3c(n2)-c2ccc(Cl)cc2C(c2ccccc2F)=NC3)cc1O [Compound I-85, 4-[9-Chloro-7-(2-fluoro-phenyl)-5H-benzo[c]pyrimido[4,5-e]azepin-2-ylamino]-2-hydroxy-benzoic acid]	≥ 6.00
O=C(c1ccc(Nc2ncc3c(n2)-c2ccc(Cl)cc2C(c2ccccc2F)=NC3)cc1)N1CCN(C(=O)c2ccco2)CC1 [Compound I-166]	≥ 6.00
